This note sets out measurements from US20220213467A1.

The chains behind the UniProt entries cited, without tags or fusion partners. Where a name states a change or a piece, a line headed by the entry shows the natural chain unless it says otherwise.
UniProt P10928: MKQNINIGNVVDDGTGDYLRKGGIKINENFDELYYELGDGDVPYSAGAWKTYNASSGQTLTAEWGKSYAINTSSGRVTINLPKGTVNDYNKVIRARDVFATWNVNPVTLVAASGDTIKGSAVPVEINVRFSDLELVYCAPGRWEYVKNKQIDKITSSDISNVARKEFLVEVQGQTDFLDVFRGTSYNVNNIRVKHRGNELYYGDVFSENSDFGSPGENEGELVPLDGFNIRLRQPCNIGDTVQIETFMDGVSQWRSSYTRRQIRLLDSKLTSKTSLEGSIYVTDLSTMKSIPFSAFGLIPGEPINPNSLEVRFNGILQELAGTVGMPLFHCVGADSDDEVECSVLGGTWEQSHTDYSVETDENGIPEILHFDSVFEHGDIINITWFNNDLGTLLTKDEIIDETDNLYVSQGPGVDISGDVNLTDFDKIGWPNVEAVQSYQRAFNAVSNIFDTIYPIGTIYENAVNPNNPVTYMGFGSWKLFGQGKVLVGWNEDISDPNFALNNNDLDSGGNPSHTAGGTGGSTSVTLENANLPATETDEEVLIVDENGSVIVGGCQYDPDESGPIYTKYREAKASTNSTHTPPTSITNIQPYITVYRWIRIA

The test addresses T1, gp11 fused to an HA peptide (gp11-HA), bacteriophage T4 gene product 11 (bacteriophage T4) (UniProt P10929).
T1 sequence: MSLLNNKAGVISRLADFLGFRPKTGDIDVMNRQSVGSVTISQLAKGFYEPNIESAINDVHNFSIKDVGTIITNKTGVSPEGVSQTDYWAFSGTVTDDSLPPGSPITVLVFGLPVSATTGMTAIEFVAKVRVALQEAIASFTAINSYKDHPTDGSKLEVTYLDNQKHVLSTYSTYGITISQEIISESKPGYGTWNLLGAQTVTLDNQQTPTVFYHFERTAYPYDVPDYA
Briefly: on-chip cell-free expression, capture on a gp11-HA / anti-HA surface.

These are yes or no findings as the source states them, for the method shown. Some entries that bind do so weakly or less than the wild type. Where a sequence is shown, tags or fusion partners need not be part of it.

For “T4 wedge, gp10-7-8-6 complex (bacteriophage T4) (from UniProt P10928 1-602; P19061 1-1032; P19062 1-334; P19060 1-660)”, the binding entry is on record as “binds”.
